Assay results published in patent US8633150B2, “Methods for inducing sustained immune response” (TNI Biotech, Inc., priority 2001, dated 2014).
“And” between values parts separate entries of the source, which are not always exact repeats. Identical values can stand only once. “Also recorded” adds a separate entry of the source. At least one structure is not confirmed: it was looked up by name or label, or the drawing left a doubt. Marks after values point to notes of the source that are not given here.

Legend:
[1] = tested on: NK; experiment: AIDS Patients Immunology: NK(%); type: in vivo, human
[2] = tested on: cytotoxic T cells levels in HIV-infected patients; experiment: 12 week double blind study: T-cell counts one month after last met-enkephalin infusion; type: in vivo, human; settings: for CD56, ONE MONTH: baseline 22 ± 6
[3] = tested on: blastogenesis (PHA, PWM); experiment: AIDS Patients Immunology: PHA and PWM blastogenesis; type: in vivo, human
[4] = tested on: IL2; experiment: AIDS Patients Immunology: IL2; type: in vivo, human
[5] = tested on: Lymphocytes, CD3, CD4, CD8; experiment: AIDS Patients Immunology: lymphocyte and T cell subset counts; type: in vivo, human
[6] = tested on: advanced AIDS patients; experiment: AIDS Patients Rx Regimen and Clinical Evaluation; type: in vivo, human; settings: for Clinical Evaluation, patient 4 / Clinical Evaluation, patient 6: intermittent after initial regimen; for Clinical Evaluation, patient 4: 8 mos.; for Clinical Evaluation, patient 6: 20 μg/Kg 3x/wk to 100 μg/Kg, 11 mos. (dropped out)
[7] = tested on: gene transcription of IL2, gamma interferon and IL 12; settings: Wybran 1986; Brown 1986; Zhong 1996; cited from earlier work
[8] = advanced AIDS patients, individual values (rows = patients 1-6), 20 μg/Kg 3x/wk
[9] = advanced AIDS patients, individual values (rows = patients 1-6), 20 up to 100 μg/Kg
[10] = HIV-infected patients, weekly iv infusion 12 weeks, 4 weeks after last infusion
[11] = HIV-infected patients, weekly iv infusion 12 weeks, 4 weeks after last infusion, listed as METHIONINE ENKEPHALIN
[12] = intermittent therapy, advanced AIDS

CSCC[C@H](NC(=O)[C@H](Cc1ccccc1)NC(=O)CNC(=O)CNC(=O)[C@@H](N)Cc1ccc(O)cc1)C(=O)O [met-enkephalin, methionine enkephalin]
NK, other reading 7 M ([1]; 7 months, printed in the row of patient 5): 16*(7 M) % | NK, other reading 8 M ([1]; 8 months, printed in the row of patient 3): 13(8 M) % | NK, other reading 24 M ([1]; 24 months, printed in the row of patient 4): 30*(24 M) % | NK, 1 Month [1, 8]: 27% and 43* % and 5% and 7* % and 19* % | NK, 4 Months [1, 9]: 17* % and 6% and 33* % and 4% | CD3, ONE MONTH ([2]; HIV-infected patients, iv infusion once a week for 12 weeks (60 or 125 μg/Kg), 4 weeks after last infusion, mean ± s.e., n=12, baseline 1003 ± 81, P = 0.04): 1183 ± 116 per cu.mm | CD3, DIFFERENCE (one month vs baseline) [2, 10]: +180 per cu.mm | CD4, DIFFERENCE (one month vs baseline) [2, 10]: +37 per cu.mm | CD8, DIFFERENCE (one month vs baseline) [2, 10]: +128 per cu.mm | CD25 (IL-2 receptor), DIFFERENCE (one month vs baseline) [2, 10]: 87 per cu.mm | CD56, DIFFERENCE (one month vs baseline) [2, 10]: +115 per cu.mm | CD25 (IL-2 receptor), DIFFERENCE (one month vs baseline) [2, 11]: +87 per cu.mm | CD38, DIFFERENCE (one month vs baseline) [2, 11]: +316 per cu.mm | CD38, DIFFERENCE (one month vs baseline) ([2]; HIV-infected patients, weekly iv infusion 12 weeks, 4 weeks after last infusion, listed as enkephalin): 316 per cu.mm | CD56, ONE MONTH ([2]; HIV-infected patients, weekly iv infusion 12 weeks, 4 weeks after last infusion, mean ± s.e., n=12, P = 0.001): 137+21 per cu.mm | CD56, ONE MONTH ([2]; HIV-infected patients, weekly iv infusion 12 weeks, 4 weeks after last infusion, mean ± s.e., n=12, P = 0.001, listed as METHIONINE ENKEPHALIN): 137 ± 6 per cu.mm | CD25 (IL-2 receptor), ONE MONTH ([2]; HIV-infected patients, weekly iv infusion 12 weeks, 4 weeks after last infusion, mean ± s.e., n=12, baseline 58 ± 12, P = 0.09): 145 ± 62 per cu.mm | CD4, ONE MONTH ([2]; HIV-infected patients, weekly iv infusion 12 weeks, 4 weeks after last infusion, mean ± s.e., n=12, baseline 314 ± 39, P = 0.01): 351 ± 37 per cu.mm | CD38, ONE MONTH ([2]; HIV-infected patients, weekly iv infusion 12 weeks, 4 weeks after last infusion, mean ± s.e., n=12, baseline 320 ± 79, P = 0.05): 636 ± 103 per cu.mm | CD8, ONE MONTH ([2]; HIV-infected patients, weekly iv infusion 12 weeks, 4 weeks after last infusion, mean ± s.e., n=12, baseline 659 ± 64, P = 0.001): 787 ± 79 per cu.mm | CD3, number of patients with cell counts above baseline (N/12) ([2]; one month after last infusion): CD3(9/12) | CD4, number of patients with cell counts above baseline (N/12) ([2]; one month after last infusion): CD4 (7/12) | CD8, number of patients with cell counts above baseline (N/12) ([2]; one month after last infusion): CD8 (9/12) | CD25, number of patients with cell counts above baseline (N/12) ([2]; one month after last infusion): CD25 (10/12) | CD38, number of patients with cell counts above baseline (N/12) ([2]; one month after last infusion): CD38 (9/12) | CD56, number of patients with cell counts above baseline (N/12) ([2]; one month after last infusion): CD56 (11/12) | Cytotoxic T cells (including CD3, CD4 and CD8 cells) compared to baseline values ([2]; one month after the last dosing (8-12 weeks infusion)): elevated | PHA, 1 Month [3, 8]: 8 cpm × 10^3 and 72 cpm × 10^3 and 151* cpm × 10^3 and 82* cpm × 10^3 and 86 cpm × 10^3 | PWM, 1 Month [3, 8]: 6 cpm × 10^3 and 19* cpm × 10^3 (2×) and 25* cpm × 10^3 and 18* cpm × 10^3 | PHA, 4 Months [3, 9]: 28 cpm × 10^3 and 128 cpm × 10^3 and 187* cpm × 10^3 and 60* cpm × 10^3 and 37 cpm × 10^3 | PWM, 4 Months [3, 9]: 7 cpm × 10^3 and 12 cpm × 10^3 (2×) and 47* cpm × 10^3 | PHA, other reading 8 M ([3]; patient 2, 8 months): 15(8 M) cpm × 10^3 | PWM, other reading (8) ([3]; patient 2, 8 months): 12(8) cpm × 10^3 | PHA, other reading 10 M ([3]; patient 2, 10 months): 11(10 M) cpm × 10^3 | PWM, other reading 10 M ([3]; patient 2, 10 months): 9(10 M) cpm × 10^3 | PHA, other reading 24 M ([3]; patient 3, 24 months): 227*(24 M) cpm × 10^3 | PWM, other reading 24 M ([3]; patient 3, 24 months): 57*(24 M) cpm × 10^3 | PHA, other reading 7 M ([3]; patient 4, 7 months): 16(7 M) cpm × 10^3 | PHA, other reading 11 M ([3]; patient 6, 11 months): 8(11 M) cpm × 10^3 | IL2, 1 Month [4, 8]: 0.43* Units and 0 Units (3×) | IL2, 4 Months [4, 9]: 0.1* Units and 0 Units (2×) and 0.03* Units | IL2, other reading 8 M ([4]; patient 2, 8 months): 0.1*(8 M) Units | IL2, other reading 10 M ([4]; patient 2, 10 months): 0(10 M) Units | IL2, other reading 7 M ([4]; patient 4, 7 months): 0.03* Units | CD3, 1 Month [5, 8]: 820 /mm^3 and 1560* /mm^3 and 940* /mm^3 and 677 /mm^3 and 250* /mm^3 | CD4, 1 Month [5, 8]: 68* /mm^3 and 43* /mm^3 and 437* /mm^3 and 40 /mm^3 and 65* /mm^3 and 32* /mm^3 | CD8, 1 Month [5, 8]: 767* /mm^3 and 1144* /mm^3 and 860* /mm^3 and 594 /mm^3 and 250* /mm^3 | Lymphocytes, 1 Month [5, 8]: 1440* /mm^3 and 928* /mm^3 and 324* /mm^3 and 1066* /mm^3 and 2080* /mm^3 | Ratio CD4/CD8, 1 Month [5, 8]: 0.06* and 0.38* and 0.05 and 0.11* and 0.13* | CD3, 4 Months [5, 9]: 881* /mm^3 and 1337 /mm^3 and 1598* /mm^3 and 790* /mm^3 and 164 /mm^3 | CD4, 4 Months [5, 9]: 49* /mm^3 and 391* /mm^3 and 60* /mm^3 and 50 /mm^3 and 13 /mm^3 | CD8, 4 Months [5, 9]: 66* /mm^3 and 1271* /mm^3 and 1154* /mm^3 and 770* /mm^3 and 198 /mm^3 and 164 /mm^3 | Lymphocytes, 4 Months [5, 9]: 1620* /mm^3 and 360 /mm^3 and 252 /mm^3 and 1130* /mm^3 and 1172* /mm^3 and 1776* /mm^3 | Ratio CD4/CD8, 4 Months [5, 9]: 1.0* and 0.40 and 0.34* and 0.08 and 0.26* | lymphocyte counts compared to baseline, Patient 6 [5, 12]: increased | lymphocyte, CD3, CD4, and CD8 counts, Patient 4 [5, 12]: increased | CD3, other reading 8 M ([5]; patient 2, 8 months): 410(8 M) /mm^3 | CD4, other reading 8 M ([5]; patient 2, 8 months): 32(8 M) /mm^3 | CD8, other reading 8 M ([5]; patient 2, 8 months): 340(8 M) /mm^3 | Lymphocytes, other reading 8 M ([5]; patient 2, 8 months): 540(8 M) /mm^3 | Ratio CD4/CD8, other reading 8 M ([5]; patient 2, 8 months): 0.09*(8 M) | CD3, other reading 10 M ([5]; patient 2, 10 months): 256(10 M) /mm^3 | CD4, other reading 10 M ([5]; patient 2, 10 months): 7(10 M) /mm^3 | CD8, other reading 10 M ([5]; patient 2, 10 months): 23(10 M) /mm^3 | Lymphocytes, other reading 10 M ([5]; patient 2, 10 months): 360(10 M) /mm^3 | Ratio CD4/CD8, other reading 10 M ([5]; patient 2, 10 months): 0.02(10 M) | CD3, other reading 24 M ([5]; patient 3, 24 months): 961(24 M) /mm^3 | CD4, other reading 24 M ([5]; patient 3, 24 months): 106(24 M) /mm^3 | CD8, other reading 24 M ([5]; patient 3, 24 months): 821(24 M) /mm^3 | Lymphocytes, other reading 24 M ([5]; patient 3, 24 months): 1173(24 M) /mm^3 | Ratio CD4/CD8, other reading 24 M ([5]; patient 3, 24 months): 0.13(24 M) | CD3, other reading 7 M ([5]; patient 4, 7 months): 532(7 M) /mm^3 | CD4, other reading 7 M ([5]; patient 4, 7 months): 58*(7 M) /mm^3 | CD8, other reading 7 M ([5]; patient 4, 7 months): 610(7 M) /mm^3 | Lymphocytes, other reading 7 M ([5]; patient 4, 7 months): 969(7 M) /mm^3 | Ratio CD4/CD8, other reading 7 M ([5]; patient 4, 7 months): 0.09*(7 M) | CD3, other reading 11 M ([5]; patient 6, 11 months): 78(11 M) /mm^3 | CD4, other reading 11 M ([5]; patient 6, 11 months): 10(11 M) /mm^3 | CD8, other reading 11 M ([5]; patient 6, 11 months): 78(11 M) /mm^3 | Lymphocytes, other reading 11 M ([5]; patient 6, 11 months): 112(11 M) /mm^3 | Ratio CD4/CD8, other reading 11 M ([5]; patient 6, 11 months): 0.13*(11 M) | Kaposis sarcoma nodules ([6]; intermittent dose therapy, advanced AIDS patients): reduce or stabilize | Clinical Evaluation, patient 4 ([6]; person, AIDS (IV, C), 20 μg/Kg 3x wk to 100 μg/Kg, with Sulfadiazine, Pyrimethamine): no recurrence of opportunistic infection | Clinical Evaluation, patient 4 ([6]; person, AIDS (IV, C), 20 μg/Kg 3x wk to 100 μg/Kg, with Sulfadiazine, Pyrimethamine, listed as Met-Enk): Month 7 of RX Paraplegia and; also recorded: Death of unknown origin (Bacterial; also recorded: No recurrence of opportunistic | Clinical Evaluation, patient 2 ([6]; person, AIDS (IV, C, D), 20 μg/Kg 3x wk to 100 μg/Kg 3x/wk, 10 mos., with Amphotericin, Sulfadizine, Vincristine, Miconazol): No opportunistic infection except; also recorded: Shigella enteritis cured; also recorded: Kaposi sarcoma stable; also recorded: Klebsiella septicemia cured | Clinical Evaluation, patient 6 ([6]; person, AIDS (IV, C, D)): no recurrence of opportunistic infection; also recorded: disappearance of skin lesions for an extended period of time | Clinical Evaluation, patient 6 ([6]; person, AIDS (IV, C, D), listed as Met-Enk): Disappearance of skin lesions at first; also recorded: (biopsy) but relapse (7 months) with; also recorded: No recurrence of opportunistic | Clinical Evaluation, patient 3 ([6]; person, Kaposi sarcoma, AIDS (IV, C, D), 20 μg/Kg 3x wk to 100 μg/Kg, 24 mos., local liquid N2): Kaposi sarcoma stable (some; also recorded: No opportunistic infections; also recorded: Salmonella septicemia at month 22 | Clinical Evaluation, patient 1 ([6]; person, Kaposi sarcoma, AIDS (IV, C, D), 20 μg/Kg 3x/wk, 4 mos., AZT): Kaposi Sarcoma stable; also recorded: No opportunistic infection | Clinical Evaluation, patient 5 ([6]; person, cerebral toxoplasmosis, AIDS (IV, C), 20 μg/Kg 3x/wk to 50 μg/Kg, 4 mos. (dropped out), with Sulfadiazine, Pyrimethamine): Signs of cerebral atrophy after 2 mos; also recorded: No recurrence of opportunistic | gene transcription of IL2, gamma interferon and IL 12 [7]: activated gene transcription
